From patent US20070265189A1
These are yes or no findings as the source states them, for the method shown. Some binding calls cover weakened binding; strength is not graded here.

Protein sequences, listed by entry. Tags and fused reporters are not part of them. Lines headed by an entry give the natural chain unless they say otherwise; changes in a name come on top. Residues count along the entry.
UniProt P06213, residues 28-956: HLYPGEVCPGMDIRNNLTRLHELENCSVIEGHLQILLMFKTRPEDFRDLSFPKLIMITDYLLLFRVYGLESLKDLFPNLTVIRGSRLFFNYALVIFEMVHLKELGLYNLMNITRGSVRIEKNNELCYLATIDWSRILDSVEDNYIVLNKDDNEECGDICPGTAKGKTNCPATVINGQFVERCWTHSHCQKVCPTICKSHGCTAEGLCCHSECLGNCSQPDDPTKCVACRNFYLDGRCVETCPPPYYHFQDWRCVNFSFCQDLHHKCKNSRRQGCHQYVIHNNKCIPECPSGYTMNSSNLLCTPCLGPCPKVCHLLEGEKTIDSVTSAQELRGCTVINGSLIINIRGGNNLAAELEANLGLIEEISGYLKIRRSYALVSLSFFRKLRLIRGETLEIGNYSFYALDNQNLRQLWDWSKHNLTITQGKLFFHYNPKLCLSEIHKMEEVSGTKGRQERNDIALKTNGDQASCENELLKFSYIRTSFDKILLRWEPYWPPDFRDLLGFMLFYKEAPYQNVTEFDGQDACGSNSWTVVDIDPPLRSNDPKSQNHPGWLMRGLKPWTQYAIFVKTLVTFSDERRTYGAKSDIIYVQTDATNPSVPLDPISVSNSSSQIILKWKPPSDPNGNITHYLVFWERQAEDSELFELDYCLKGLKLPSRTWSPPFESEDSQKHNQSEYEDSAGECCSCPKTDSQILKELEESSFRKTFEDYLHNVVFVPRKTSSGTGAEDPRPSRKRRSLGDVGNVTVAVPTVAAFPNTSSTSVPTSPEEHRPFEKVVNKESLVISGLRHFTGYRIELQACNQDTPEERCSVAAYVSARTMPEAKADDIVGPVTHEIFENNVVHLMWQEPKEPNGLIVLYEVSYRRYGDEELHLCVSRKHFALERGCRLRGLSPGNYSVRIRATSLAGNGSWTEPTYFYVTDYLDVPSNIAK
UniProt P08069, residues 31-935: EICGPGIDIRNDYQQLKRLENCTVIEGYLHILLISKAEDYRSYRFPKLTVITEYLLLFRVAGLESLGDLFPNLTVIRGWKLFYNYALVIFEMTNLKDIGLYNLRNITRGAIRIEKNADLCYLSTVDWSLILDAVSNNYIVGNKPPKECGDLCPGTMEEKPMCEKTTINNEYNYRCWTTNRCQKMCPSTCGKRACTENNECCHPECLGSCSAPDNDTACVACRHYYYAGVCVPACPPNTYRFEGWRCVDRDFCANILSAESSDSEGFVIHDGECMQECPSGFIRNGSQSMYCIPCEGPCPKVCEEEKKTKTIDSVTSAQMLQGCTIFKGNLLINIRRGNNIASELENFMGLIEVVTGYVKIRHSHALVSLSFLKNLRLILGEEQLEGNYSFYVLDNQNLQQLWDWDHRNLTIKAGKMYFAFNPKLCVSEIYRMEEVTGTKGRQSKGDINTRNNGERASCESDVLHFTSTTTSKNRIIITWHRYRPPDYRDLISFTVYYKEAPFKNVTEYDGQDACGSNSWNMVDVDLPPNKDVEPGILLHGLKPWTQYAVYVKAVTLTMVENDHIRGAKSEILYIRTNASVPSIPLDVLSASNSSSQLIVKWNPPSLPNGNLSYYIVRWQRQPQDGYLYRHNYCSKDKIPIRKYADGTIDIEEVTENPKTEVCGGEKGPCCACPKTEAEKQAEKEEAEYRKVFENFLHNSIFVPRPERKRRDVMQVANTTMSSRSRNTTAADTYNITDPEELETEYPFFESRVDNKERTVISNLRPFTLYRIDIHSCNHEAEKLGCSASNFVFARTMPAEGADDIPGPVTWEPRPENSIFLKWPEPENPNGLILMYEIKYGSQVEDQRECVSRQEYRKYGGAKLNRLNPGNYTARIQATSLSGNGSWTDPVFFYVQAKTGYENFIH

Experiments:
[1] = biological target: soluble human insulin receptor-immunoglobulin heavy chain chimera (sIR-Fc; Bass et al., 1996) (human) (UniProt P06213); assay: FP competition vs FITC-RP9, sIR-Fc
[2] = biological target: recombinant human IGF-1R (rhIGF-1R) (human) (UniProt P08069); assay: TR-FRET competition vs b-20E2, rhIGF-1R

Binder	binding [1]	binding [2]
GSLDESFYDWFERQLG [RP9 (minus terminal lysines)]	binds	
GIISQSCPESFYDWFAGQVSDPWWCW [G33]		binds
